Consider two molecules from PMC3063170.

Chains of the proteins cited; added tags and fusions are not shown.
UniProt Q07817: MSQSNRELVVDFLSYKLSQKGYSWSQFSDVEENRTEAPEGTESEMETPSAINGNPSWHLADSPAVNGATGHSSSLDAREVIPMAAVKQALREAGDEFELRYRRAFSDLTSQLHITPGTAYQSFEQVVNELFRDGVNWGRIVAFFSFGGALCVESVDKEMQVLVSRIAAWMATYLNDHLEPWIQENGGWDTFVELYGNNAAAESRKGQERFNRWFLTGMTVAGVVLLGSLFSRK

No constants are given. Whether binding was seen depends on the method and setting. In cells and extracts the contact can be indirect. Some entries that bind do so weakly or less than the wild type. For part of these data: Where a sequence is shown, tags or fusion partners need not be part of it.

Assay [1] concerns the target T1, MISC-1 (Mitochondrial Solute Carrier) (C. elegans (endogenous in N2)) (UniProt P90992).
T1 sequence: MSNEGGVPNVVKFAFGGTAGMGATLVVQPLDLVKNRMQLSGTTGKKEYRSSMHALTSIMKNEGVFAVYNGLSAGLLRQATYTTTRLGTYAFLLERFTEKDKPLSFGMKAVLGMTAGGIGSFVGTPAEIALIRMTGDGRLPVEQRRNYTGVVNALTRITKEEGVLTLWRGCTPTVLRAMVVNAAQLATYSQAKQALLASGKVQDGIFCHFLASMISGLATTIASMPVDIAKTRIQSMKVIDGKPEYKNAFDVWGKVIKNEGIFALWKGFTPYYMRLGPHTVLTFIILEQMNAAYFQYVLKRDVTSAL
Briefly: co-IP; lysates of mixed stage C. elegans (wild type N2 and the MISC-1::GFP transgenic line) in co-immunoprecipitation buffer, several combinations of antibodies, protocol as for mammalian cells, Western blot.

The target of the next assay is T2, MISC-1::GFP (C. elegans) (UniProt P90992).
T2 sequence: T1 sequence
The description is as above.

The target of assay [2] is Bcl-xL (human (endogenous in HEK293)) (UniProt Q07817). Briefly: co-IP; immunoprecipitation with an antibody against Bcl-xL from HEK293 cells; data not shown.

B1: CED-9 (protein, UniProt P41958 1-280)
chain: MTRCTADNSLTNPAYRRRTMATGEMKEFLGIKGTEPTDFGINSDAQDLPSPSRQASTRRMSIGESIDGKINDWEEPRLDIEGFVVDYFTHRIRQNGMEWFGAPGLPCGVQPEHEMMRVMGTIFEKKHAENFETFCEQLLAVPRISFSLYQDVVRTVGNAQTDQCPMSYGRLIGLISFGGFVAAKMMESVELQGQVRNLFVYTSLFIKTRIRNNWKEHNRSWDDFMTLGKQMKEDYERAEAEKVGRRKQNRRWSMIGAGVTAGAIGIVGVVVCGRMMFSLK
Turning to B1, the binding entry (in assay [1]; with MISC-1::GFP (C. elegans)) was “binds” in each case.

B2: 2-oxoglutarate carrier (OGC) (protein, UniProt Q02978 1-314)
chain: MAATASAGAGGIDGKPRTSPKSVKFLFGGLAGMGATVFVQPLDLVKNRMQLSGEGAKTREYKTSFHALTSILKAEGLRGIYTGLSAGLLRQATYTTTRLGIYTVLFERLTGADGTPPGFLLKAVIGMTAGATGAFVGTPAEVALIRMTADGRLPADQRRGYKNVFNALIRITREEGVLTLWRGCIPTMARAVVVNAAQLASYSQSKQFLLDSGYFSDNILCHFCASMISGLVTTAASMPVDIAKTRIQNMRMIDGKPEYKNGLDVLFKVVRYEGFFSLWKGFTPYYARLGPHTVLTFIFLEQMNKAYKRLFLSG
For the molecule B2, the binding entry in assay [2] is listed as “binds”.
